Source: PMC12784972
Results are given in words; binding and its absence hold for the method and conditions named. In cells and extracts the contact can be indirect.

The chains behind the UniProt entries cited, without tags or fusion partners.
UniProt Q62093: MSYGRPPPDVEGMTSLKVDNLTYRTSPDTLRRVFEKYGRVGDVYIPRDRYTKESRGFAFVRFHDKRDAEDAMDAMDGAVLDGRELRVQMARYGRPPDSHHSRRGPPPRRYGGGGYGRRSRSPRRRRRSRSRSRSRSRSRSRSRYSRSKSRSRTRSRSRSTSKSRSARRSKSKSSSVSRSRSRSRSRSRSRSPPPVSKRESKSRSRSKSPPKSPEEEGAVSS

Molecular target: TDP43^ΔNLS (UniProt Q921F2)
Test: co-IP; transfected cells, 48 h; lysis buffer 50 mM Tris-HCl pH 7.5, 150 mM NaCl, 10% glycerol, 0.5% NP-40; IP with anti-MYC beads 4 h at 4°C; TDP43 and its mutants with SRSF2 (Fig. 8C,D)

SRSF2 (SC35), expressed in transfected cells for co-IP (from UniProt Q62093 1-221)
binding: no binding
